From publication PMC11605229
Results are given in words; binding and its absence hold for the method and conditions named. In cells and extracts the contact can be indirect. Here binding means that the protein was enriched with, or labelled near, the bait; the list need not be complete.

Target: BioID-BAG3, O95817
Experiment: proximity labelling; BioID in human AC16 cardiomyocyte cells: transfected with plasmid expressing BioID-BAG3 for 48 h, biotin for 16 h; LC-MS/MS; BAG3_Biotin vs. BioID vector only, adjusted p < 0.05; effect sizes corrected for biotin alone and for BAG3 over-expression; three replicates
Details: remark: other sources report otherwise

binding: binds
B1: LMNA, P02545 1-646 (protein)
chain: METPSQRRATRSGAQASSTPLSPTRITRLQEKEDLQELNDRLAVYIDRVRSLETENAGLRLRITESEEVVSREVSGIKAAYEAELGDARKTLDSVAKERARLQLELSKVREEFKELKARNTKKEGDLIAAQARLKDLEALLNSKEAALSTALSEKRTLEGELHDLRGQVAKLEAALGEAKKQLQDEMLRRVDAENRLQTMKEELDFQKNIYSEELRETKRRHETRLVEIDNGKQREFESRLADALQELRAQHEDQVEQYKKELEKTYSAKLDNARQSAERNSNLVGAAHEELQQSRIRIDSLSAQLSQLQKQLAAKEAKLRDLEDSLARERDTSRRLLAEKEREMAEMRARMQQQLDEYQELLDIKLALDMEIHAYRKLLEGEEERLRLSPSPTSQRSRGRASSHSSQTQGGGSVTKKRKLESTESRSSFSQHARTSGRVAVEEVDEEGKFVRLRNKSNEDQSMGNWQIKRQNGDDPLLTYRFPPKFTLKAGQVVTIWAAGAGATHSPPTDLVWKAQNTWGCGNSLRTALINSTGEEVAMRKLVRSVTVVEDDEDEDGDDLLHHHHGSHCSSSGDPAEYNLRSRTVLCGTCGQPADKASASGSGAQVGGPISSGSSASSVTVTRSYRSVGGSGGGSFGDNLVTRSY
